# Assay results as given in US7906486B2, “Method of treating or preventing tissue deterioration, injury or damage due to disease of mucosa” (SciClone Pharmaceuticals, Inc., priority 2007, dated 2011).
# Values joined by “and” are separate entries in the source; they are usually repeats but may differ in a detail not shown here. Equal values may be shown once. This continues a long series; more values of the same kind are listed elsewhere.
# System: oral mucositis induced by acute radiation (40 Gy, left buccal cheek pouch)
# Experiment: Oral mucositis induced by acute radiation in hamsters, mucositis scoring (Example 1, SCI-01)
# Format: in vivo, Syrian Golden Hamsters
# Set-up: key: 0: Pouch completely healthy. No erythema or vasodilation.; 1: Light to severe erythema and vasodilation. No erosion of mucosa.; 2: Severe erythema and vasodilation. Erosion of superficial aspects of mucosa leaving denuded areas. Decreased stippling of mucosa.; 3: Formation of off-white ulcers in one or more places. Ulcers may have a yellow/gray due to pseudomembrane. Cumulative size of ulcers should equal about ¼ of the pouch. Severe erythema and vasodilation.; 4: Cumulative seize of ulcers should equal about ½ of the pouch. Loss of pliability. Severe erythema and vasodilation.; 5: Virtually all of pouch is ulcerated. Loss of pliability (pouch can only partially be extracted from mouth)
# Text: The acute radiation model in hamsters has proven to be an accurate, efficient and cost-effective technique to provide a preliminary evaluation of anti-mucositis compounds. The course of mucositis in this model is well defined and results in peak scores approximately 14-16 Days following radiation. The acute model has little systemic toxicity, resulting in few hamster deaths, thus permitting the use of smaller groups (N=7-8) for initial efficacy studies. It has also been used to study specific mechanistic elements in the pathogenesis of mucositis. Molecules that show efficacy in the acute radiation model may be further evaluated in the more complex models of fractionated radiation, chemotherapy, or concomitant therapy.
# In this study, an acute radiation dose of 40 Gy on day 0 was administered. Clinically significant mucositis was observed on days 12 through 28.
# Thirty-two (32) Syrian Golden Hamsters were given an acute radiation dose of 40 Gy directed to their left buccal cheek pouch on day 0. Test materials were given by sub-cutaneous injection once daily. Dosing began one day before radiation (day −1) and continued until day 16. Mucositis was evaluated clinically starting on day 6, and continuing on alternate days until day 28.
# The grade of mucositis was scored, beginning day 6, and for every second day thereafter, through and including day 28. The effect on mucositis of each drug treatment compared to placebo was assessed according to the following parameters:
# The difference in the number of days hamsters in each group have ulcerative (score ≧3) mucositis.
# On each evaluation day, the number of animals with a blinded mucositis score of 3 in each drug treatment group was compared to the control group. Differences were compared on a cumulative basis and statistical significance was determined by chi-square analysis. Efficacy, in this analysis, is defined by a significant reduction in the number of days that a group of animals had ulcerations (scores 3) when compared to the control group.
# For each evaluation day the scores of the control group were compared to those of the treated groups using non-parametric rank sum analysis. Treatment success was considered as a statistically significant lowering of scores in the treated group on 2 or more days from day 6 to day 28.
# Thirty-two Syrian Golden Hamsters were divided into four (4) groups of eight (8) animals each. All animals received a single dose of acute radiation of 40 Gy directed to their left buccal cheek pouch on day 0. This was accomplished by anesthetizing the animals and everting the left buccal pouch, while protecting the rest of the animals with a lead shield. Test materials were given by sub-cutaneous injection once daily as detailed in Table 1. Mucositis was evaluated clinically starting on Day 6, and continuing on alternate days until day 28.
# Mucositis was induced using a standardized acute radiation protocol. A single dose of radiation (40 Gy/dose) was administered to all animals on day 0. Radiation was generated with a 160 kilovolt potential (15-ma) source at a focal distance of 30 cm, hardened with a 0.35 mm Cu filtration system. Irradiation targeted the left buccal pouch mucosa at a rate of 3.2 Gy/minute. Prior to irradiation, animals were anesthetized with an intraperitoneal injection of Ketamine (160 mg/kg) and Xylazine (8 mg/kg). The left buccal pouch was everted, fixed and isolated using a lead shield to protect all other parts of the hamster's body.
# The mucositis score, weight change and survival were measured throughout the study as described above. For the evaluation of mucositis, the animals were anesthetized with an inhalation anesthetic, and the left pouch everted. Mucositis was scored visually by comparison to a validated photographic scale, ranging from 0 for normal, to 5 for severe ulceration (clinical scoring). In descriptive terms, this scale is defined as follows: […]
smiles,measurement,setting,value
"N[C@H](CCC(=O)N[C@@H](Cc1c[nH]c2ccccc12)C(=O)O)C(=O)O [SCV-07, γ-D-glutamyl-L-tryptophan]",Mucositis score,"Group 2 (SCV-07 1 ug/kg, days -1 to 16), day 6, individual animals",0 (6×) and 1 (2×)
same,Mucositis score,"Group 2 (SCV-07 1 ug/kg, days -1 to 16), day 8, individual animals",1 (7×) and 0
same,Mucositis score,"Group 2 (SCV-07 1 ug/kg, days -1 to 16), day 10, individual animals",2 (2×) and 1 (5×) and 3
same,Mucositis score,"Group 2 (SCV-07 1 ug/kg, days -1 to 16), day 12, individual animals",2 (6×) and 3 and 1
same,Mucositis score,"Group 2 (SCV-07 1 ug/kg, days -1 to 16), day 14, individual animals",3 (4×) and 2 (4×)
same,Mucositis score,"Group 2 (SCV-07 1 ug/kg, days -1 to 16), day 16, individual animals",4 and 3 (7×)
same,Mucositis score,"Group 2 (SCV-07 1 ug/kg, days -1 to 16), day 18, individual animals",4 (7×) and 3
same,Mucositis score,"Group 2 (SCV-07 1 ug/kg, days -1 to 16), day 20, individual animals",3 (6×) and 2 and 4
same,Mucositis score,"Group 2 (SCV-07 1 ug/kg, days -1 to 16), day 22, individual animals",3 (4×) and 2 (4×)
same,Mucositis score,"Group 2 (SCV-07 1 ug/kg, days -1 to 16), day 24, individual animals",3 (4×) and 2 (4×)
same,Mucositis score,"Group 2 (SCV-07 1 ug/kg, days -1 to 16), day 26, individual animals",2 (6×) and 3 and 1
same,Mucositis score,"Group 2 (SCV-07 1 ug/kg, days -1 to 16), day 28, individual animals",0 and 1 (7×)
same,Mucositis score,"Group 3 (SCV-07 10 ug/kg, days -1 to 16), day 6, individual animals",1 (5×) and 0 (3×)
same,Mucositis score,"Group 3 (SCV-07 10 ug/kg, days -1 to 16), day 8, individual animals",1 (7×) and 0
same,Mucositis score,"Group 3 (SCV-07 10 ug/kg, days -1 to 16), day 10, individual animals",1
same,Mucositis score,"Group 3 (SCV-07 10 ug/kg, days -1 to 16), day 12, individual animals",2 (7×) and 1
same,Mucositis score,"Group 3 (SCV-07 10 ug/kg, days -1 to 16), day 14, individual animals",2 (6×) and 3 (2×)
same,Mucositis score,"Group 3 (SCV-07 10 ug/kg, days -1 to 16), day 16, individual animals",3
same,Mucositis score,"Group 3 (SCV-07 10 ug/kg, days -1 to 16), day 18, individual animals",4 (6×) and 3 (2×)
same,Mucositis score,"Group 3 (SCV-07 10 ug/kg, days -1 to 16), day 20, individual animals",3 (7×) and 2
same,Mucositis score,"Group 3 (SCV-07 10 ug/kg, days -1 to 16), day 22, individual animals",2 (5×) and 1 (2×) and 3
same,Mucositis score,"Group 3 (SCV-07 10 ug/kg, days -1 to 16), day 24, individual animals",2 (6×) and 3 (2×)
same,Mucositis score,"Group 3 (SCV-07 10 ug/kg, days -1 to 16), day 26, individual animals",2 (5×) and 1 (2×) and 3
same,Mucositis score,"Group 3 (SCV-07 10 ug/kg, days -1 to 16), day 28, individual animals",1 (6×) and 2 and 0
same,Mucositis score,"Group 4 (SCV-07 100 ug/kg, days -1 to 16), day 6, individual animals",0 (5×) and 1 (3×)
same,Mucositis score,"Group 4 (SCV-07 100 ug/kg, days -1 to 16), day 8, individual animals",1 (4×) and 0 (4×)
same,Mucositis score,"Group 4 (SCV-07 100 ug/kg, days -1 to 16), day 10, individual animals",1 (7×) and 2
same,Mucositis score,"Group 4 (SCV-07 100 ug/kg, days -1 to 16), day 12, individual animals",1 and 2 (7×)
same,Mucositis score,"Group 4 (SCV-07 100 ug/kg, days -1 to 16), day 14, individual animals",2 (6×) and 3 (2×)
same,Mucositis score,"Group 4 (SCV-07 100 ug/kg, days -1 to 16), day 16, individual animals",3 (6×) and 2 and 4
same,Mucositis score,"Group 4 (SCV-07 100 ug/kg, days -1 to 16), day 18, individual animals",4 (5×) and 3 (2×) and 2
same,Mucositis score,"Group 4 (SCV-07 100 ug/kg, days -1 to 16), day 20, individual animals",4 and 3 (5×) and 1 and 2
same,Mucositis score,"Group 4 (SCV-07 100 ug/kg, days -1 to 16), day 22, individual animals",4 and 3 (3×) and 2 (3×) and 1
same,Mucositis score,"Group 4 (SCV-07 100 ug/kg, days -1 to 16), day 24, individual animals",3 and 2 (7×)
same,Mucositis score,"Group 4 (SCV-07 100 ug/kg, days -1 to 16), day 26, individual animals",3 (3×) and 2 and 1 (4×)
same,Mucositis score,"Group 4 (SCV-07 100 ug/kg, days -1 to 16), day 28, individual animals",1 (6×) and 2 and 3
